# Results as given in PubChem BioAssay AID1508600 (Functional Genomics Laboratory (NCATS/FGL), 2020).
# In all, about 53,000 sequences went through this assay and about 3,700 (7%) were called active.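 How the source made its calls: active means gene knockdowns whose robust z-score for IL-1 alpha signal is at least 2 or at most -2, so actives lie on both sides; inactive means the rest.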 Some of the results follow.
# Experiment: Components of the Cytosolic LPS Sensing Pathway: Gene Identification via Genome-wide siRNA Screen;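 further: robust z of the log signal after scaling to non-targeting control siRNA wells of the plate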
# Settings: RAW264.7 macrophages, IL-1a HTRF, actives lie on both sides, screened at 100 nM (by protocol), cells primed 5 h with Pam3CSK4 first
# In short: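 IL-1a HTRF of supernatants after 24 hour LipidA transfection of Pam3CSK4-primed (5 hours) RAW264.7 cells, 48h post-siRNA transfection (100 nM). Scores: percent of plate negative-control median, then log-based robust z-score.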
row,Sequence,z-score
1,GGAGGAACCCAAGUAGCCUTT against Serf2,inactive: -1.68
2,GGCUAUUGUAUGAAAUUGUTT against Zfp599,inactive: 0.303
3,GGAAGAACCCUGCUACAUCTT against Mrpl37,inactive: 0.764
4,GGUGCAGAAGCUCAAGUUCTT against Cpne2,active: 2.44
5,GGACAUGUCGGAUGGCUUCTT against P4ha1,inactive: 0.212
6,CGGAAUGAUUCUGACUAAUTT against Mmp7,inactive: 0.546
7,GGCAGAAAAGAAGAAGAAUTT against Ktn1,inactive: 0.402
8,GCAUUUAAGUGUUGCAUUGTT against C1qtnf3,inactive: 1.09
9,CCACUGUGAGACACAUAAGTT against Muc4,active: -3.25
10,CCUUGGACUGAUAUUAGCUTT against Dtx3,inactive: 0.0235
11,GGAUAUAGAAGAUGAAGAATT against 2810408A11Rik,inactive: 0.784
12,GGUAUGUCCGACAUUUAACTT against Irx5,inactive: 1.89
13,GCAGGUACUGCGCUAUUAUTT against Atp13a2,inactive: -0.766
14,GGAGAGGAGUGUGUCAUCUTT against Neurl3,inactive: 0.0796
15,GCCGCUACCUAUGAUGUCCTT against Kcne4,inactive: 0.385
16,GCAGGAGAACUUUUUUAGUTT against Hus1,inactive: -1.01
17,GGCGGACAGUUCUUUGCAATT against Slc2a13,inactive: -0.144
18,CGGACAAAUGCUGUGCGUUTT against Kcnd1,inactive: 0.163
19,CGCACAUGAAGCCACAUAUTT against Plekhb1,inactive: -0.176
20,GGUUAUAGACAAGAUCGAUTT against Comp,inactive: 0.536
21,CCCGCAACAAUAAACCUGATT against Yif1b,inactive: -1.36
22,GGCUGCUGGGAAAAUGUGGTT against Hmgb4,inactive: -1.84

row,Sequence,z-score
1,GGCAGUUACAAAGUCUGUUTT against Timm8b,inactive: -0.334
2,GGACGAUUACAUCCUUUUUTT against Gpn3,inactive: -0.93
3,GGAUCCAAGGGCAAAAGAUTT against St6galnac1,inactive: -1.36
4,GGCUAUAGUUCUCUGUUUUTT against Mon2,inactive: -0.0947
5,GGACCAGUUAGAGCAAAUGTT against 2300002M23Rik,inactive: -0.742
6,CCGUGGACCUAGGACUCAUTT against Olfr622,inactive: 0.618
7,CCAUUUCCUACGCAAAAUGTT against Olfr1423,inactive: -0.838
8,GGAUGGACCUUCAGAAAAGTT against Srrm4,inactive: -1.63
9,GGCAAAAGUGGUUAUUGAATT against Itga6,inactive: 0.039
10,GGUGUAUGGUCUCAACUUUTT against Enah,inactive: 1.84
11,GGCAGAAGCAGAUAUUAGATT against Rbmxl1,active: 2.23
12,CCUCCGGUCUUAUCAUGCATT against Sec61a1,inactive: 0.0213
13,GGAUAAGAGCAUCUCUUCATT against Sdhd,inactive: -0.993
14,CCUCAAAUUAGUGCAGUUATT against Dnah8,inactive: 0.661
15,GCCAUGUGAUCGAAUCCAGTT against Clip2,inactive: -0.0773
16,UCAGCGAGCUUUAACCUUUTT against Olfr1028,inactive: 0.26
17,CGGUACUUCAUUGUAAUUUTT against Slc20a2,inactive: 1.2
18,GGACCAAUAAACCUAGAACTT against Dact1,inactive: -1.23
19,CCGCACCAGGGAAAAUGCUTT against Crym,inactive: -1.45
20,GGACUGUGGAUGAGUCCGUTT against Dnmbp,inactive: 0.689
21,GGUAGGAGGUAUUUCCCACTT against Shisa5,inactive: 0.197
22,GGAGGUGGAUGAAGUAUUUTT against Nudt8,inactive: -0.162

row,Sequence,z-score
1,CCGUAUAGGUAGAUCCAGATT against Stmn1,inactive: -0.717
2,GCACCGUGUGACCAUGAACTT against Akt1,active: 3.96
3,GGAUUCAGACCACAAUACCTT against Klk4,inactive: 0.746
4,CCUGGACUGAGAAUAUAGCTT against 2610008E11Rik,inactive: -0.0107
5,GCUUUGUGAUGGAUUACUATT against Ccl4,inactive: 1.85
6,GCAAAACGGCUUUUGAAUGTT against Zfp454,inactive: -0.384
7,GGUACUAAGCACAAGACAATT against Zfp385a,inactive: 0.982
8,GGUUGUAAUGAGAAAGUGATT against H2-Ke6,inactive: 0.152
9,GGCUUGUGGAAAUUUUGGGTT against Paics,inactive: 0.908
10,CGAUUUAAACAUGGAAUUCTT against Ccny,inactive: 0.665
11,GGUUGCACUUUUUCAUAGUTT against Bcl2l2,inactive: 0.97
12,CGUGUUUGAUCACUACUCUTT against Tnfaip8l2,inactive: -0.593
13,GCAAGAGUCUUGGCCCUCATT against Morn4,inactive: 0.534
14,CCCUCAACCAUUGUUCGAGTT against Rasal1,inactive: -0.328
15,CCUCAUUGUAGUCACCCUCTT against Olfr91,inactive: -1.44
16,GGUUAUUUUACAUGAGUACTT against Il15,inactive: -0.416
17,GGCAUUCAAACCUCUCGUGTT against Dcn,inactive: -0.921
18,GGAACCCAACAUUGCCAAGTT against Ier3,inactive: -1.31
19,GGUCAGAACCCUAAAGACCTT against Tbcd,inactive: -0.425
20,GGCACAAUUAACAAGAAAATT against Pfn2,inactive: -0.746
21,GCAUACGUGUUCAAUGGUGTT against Ppef2,inactive: -0.541
22,GGCUCUGAGCUACAUCUUUTT against Trex2,inactive: -0.458

# Taken from the results shown (2 entries):
row,Sequence,z-score
16,GGUUAUUUUACAUGAGUACTT against Il15,inactive: -0.416
17,GGCAUUCAAACCUCUCGUGTT against Dcn,inactive: -0.921

# Following part:

row,Sequence,z-score
1,GGCCGGAGCUUACGAUUUUTT against Camk2d,inactive: 0.309
2,GGAGACAGUGGUAUUUUGATT against Birc5,inactive: 0.468
3,GCAUCCAUGCUAUGGAACCTT against Rhox8,inactive: 0.36
4,GGAAAUUUGGGUAGGAGUGTT against Atp5mpl,inactive: -1.91
5,GCUGUCCAGACAAACACUATT against Cd27,inactive: -0.602
6,GGAAAUCGAUUCUCAUGAUTT against St6gal2,inactive: 0.00146
7,CCUAGAGAACUUUCUUCUUTT against Olfr385,inactive: -0.0168
8,GCAAAAGUGUAUCAUGAUGTT against Olfr1052,active: -2.17
9,GGAGUUGAUUGAAAUCAUCTT against Atp5c1,inactive: 0.466
10,GGCCACAACAGAGAUUAAATT against Bank1,inactive: -0.304
11,GGGAUAUGAAAUCAUUUUCTT against Cyld,inactive: 0.819
12,CCAUGUUAUAUGAUAAGGGTT against Riox1,inactive: -1.17
13,CGGAGAGCCUUCCAUAUGATT against Ndufb8,inactive: -1.27
14,GGCAGAAUUACAUUUAACATT against Grik2,inactive: 0.702
15,GCCUCAAACCAUCAUACUUTT against Ppp1r13b,inactive: -0.00468
16,GCAGGGACUAUCAGAGUUCTT against D430018E03Rik,inactive: 0.589
17,GGUGGAGUUUAAACUUACATT against Atp4b,active: 5.64
18,CCUACUUUAGUUCACUUUGTT against Tsnax,inactive: 0.836
19,GCACUUACAUUGACGAACUTT against Olfr985,inactive: 1.78
20,GGCUGUACUAACUGUCGUUTT against Pdxdc1,inactive: -0.695
21,GGUAUGCAUUCCAGAAAUATT against Stox2,inactive: -0.391
22,GGGACAUCCGGAAUAUUUGTT against Exog,inactive: -1.01

# Exported tab-delimited: part of the list above
row	Sequence	z-score
3	GGAAGAACCCUGCUACAUCTT against Mrpl37	inactive: 0.764
4	GGUGCAGAAGCUCAAGUUCTT against Cpne2	active: 2.44
5	GGACAUGUCGGAUGGCUUCTT against P4ha1	inactive: 0.212

# The list continues.

row,Sequence,z-score
1,GGAAGUUACUGUGAGAUAATT against Mtbp,inactive: 0.265
2,GGUCCAAAGAUAGAAGCCATT against Pramel13,inactive: 0.455
3,CGUGCUGUUUAAAAGCCGUTT against Mkrn3,inactive: 0.557
4,CGAUACGGAUGUUUUCUCUTT against Tspan18,inactive: -0.234
5,GGGCAGGUUGUCUUUCUACTT against Plpp1,inactive: 0.997
6,GGAAAAGACAAGAAAAGAUTT against Zc3h15,inactive: -0.22
7,GGGAGUAGAGAUCAAAGGCTT against Cfb,inactive: -0.0723
8,GGUAGUAGGAGUUUCCUACTT against 4933414I15Rik,inactive: 1.44
9,GCAAGAAAACCUUAGCUCATT against Trpm2,inactive: -0.518
10,CCUUGUUCAACAGUCAUGUTT against Snu13,inactive: 0.234
11,CCAUUUAUUCCCUCAACAUTT against Shoc2,inactive: 0.47
12,GGGUCUGAUUUUUUAAGGATT against Arpp19,inactive: -0.87
13,GGAACUCACUCUAUCUUUUTT against C5ar2,inactive: 0.236
14,CCUCUUGAGGUCUCGUCAATT against Fam221b,inactive: -0.0968
15,GCUGGCUAGAAUCUUACCCTT against Aph1c,inactive: 0.554
16,CGUGAGAAAGCCAAUCCCUTT against Gm9871,inactive: -1.48
17,GGAAAAUGGCAGAAAUGAATT against Vps26a,inactive: -1.97
18,CGUUUGCCUGGUACCUUACTT against Fitm1,inactive: -0.32
